Experimental findings from patent US10117916B2, “Peptides and combination of peptides for use in immunotherapy against CLL and other cancers” (immatics biotechnologies GmbH, priority 2015, dated 2018) are described below.

The data set deals with NSCLC tumor samples. In words: Absolute quantitation of TUMAP copies per cell by nanoLC-MS/MS. More on the design: species or system human. As to conditions: NSCLC tumor samples (so in the source).

As for “62 (GIIDGSPRL; listed as Homo sapiens) [compound 62]”, the “Copy Number Category (median number of copies per cell)” value was “+ (<100 = +)”. The same measure for “153 (SLLAELHVL; listed as Homo sapiens) [compound 153]”: “++ (> = 100 = ++)”.
